Laboratory results from PubChem BioAssay AID1688 (National Center for Advancing Translational Sciences (NCATS), 2009).
About 2,400 (1.1%) of roughly 220,000 compounds were called active. Inconclusive results, whose numbers are uncertain, are shown with a selection of clear calls. Calls follow the shape of the dose curve; as a rule, active = well fitted inhibition curve with a large enough effect; inconclusive = small, poorly fitted or top-dose-only effect, or effect the other way; inactive = no such curve, though single readings can be large or run the other way. Potencies of inconclusive entries are doubtful fits and often do not repeat.

experiment: qHTS Multiplex Assay to Identify Dual Action Probes in a Cell Model of Huntington: Aggregate Formation (GFP); details: PC12 HttQ103-GFP aggregates, Acumen cytometry, 40 h; activity change, negative = inhibition: at 46.1 µM (top of the series) unless noted; also: nearly all actives have a fitted effect of over 60% in size
Outline: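 Ecdysone-promoter PC12 model expressing HTT exon 1 Q103 fused to GFP, induced by tebufenozide at 100 nM final. Compounds titrated; aggregates sized 1–25 µm scored on a 488 nm laser cytometer.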
% is scaled to controls: 0 for no effect and ±100 for the full control effect; potency is read from the fitted curve at half-maximal effect.

| Compound | Potency | activity change, negative = inhibition |
| --- | --- | --- |
| CC(=O)Nc1cc(OC(C)=O)c2nonc2c1OC(C)=O | active: 7.08 µM |  |
| CNC(=O)CC1C(=O)N(C)C(=S)N1NC(=O)c1ccc(Cl)cc1 (configuration not stated) | inactive |  |
| Cc1ccc(CCC(=O)Nc2nccs2)o1 | inactive |  |
| S=C(NCCSCc1ccc(Cl)cc1)Nc1ccccc1 | inconclusive: 35.5 µM [inhibitor, single point] |  |
| COc1cccc(NC(=S)NC(C)c2ccc(OC)c(OC)c2)c1 (configuration not stated) | inactive |  |
| CC(C)CCn1c(Oc2ccccc2Cl)nc2c1c(=O)n(C)c(=O)n2C | inconclusive: 35.5 µM [inhibitor, single point] |  |
| CCOC(=O)c1[nH]c(C)c(C(=O)OCC(=O)N2CC(=O)Nc3ccccc32)c1C | inactive |  |
| O=C1S/C(=C\c2ccc(N3CCOCC3)o2)C(=O)N1c1ccccc1 | active: 15.8 µM |  |
| Cc1cc(N/N=C/c2c(O)ccc3ccccc23)nc(-c2ccccc2O)n1 | active: 10 µM |  |
| Cc1cccc(Cn2c(=O)c3c(nc4n3CCCN4Cc3ccccc3)n(C)c2=O)c1 | inconclusive: 22.4 µM [inhibitor, single point] |  |
| O=C(COc1ccc(Br)cc1)N(Cc1ccccc1)c1ccccn1 | inactive |  |
| Cc1ccccc1OCc1nnc(SCc2cc(=O)[nH]c3ccccc23)n1-c1ccccc1 | inactive |  |
| O=C(COC(=O)c1cccs1)Nc1ccccc1C(F)(F)F | inconclusive: 4.47 µM [inhibitor, single point] |  |
| CCN(c1ccccc1)S(=O)(=O)c1cc(C(=O)Nc2ccc(F)c(F)c2)ccc1F | inconclusive: 11.2 µM [inhibitor, partial curve] |  |
| COC(=O)c1[nH]c2ccc(C)cc2c1NS(=O)(=O)c1ccc(F)cc1 | inconclusive: 25.1 µM [inhibitor, single point] |  |
| O=C(Nc1ccc(Br)cc1)c1ccc(F)c(S(=O)(=O)NCc2cccs2)c1 | inconclusive: 11.2 µM [inhibitor, partial curve] |  |
| CCOC(=O)N1CCN(C(=O)CN(c2cccc(C)c2)S(=O)(=O)c2ccccc2)CC1 | inactive |  |
| COCCn1c(SCC(=O)OCc2ccccc2)nc2c1c(=O)[nH]c(=O)n2C | inconclusive: 1.26 µM [activator, single point] |  |
| Cc1cc(N(C)/N=C/c2ccccc2O)nc(-c2ccccc2O)n1 | inconclusive: 10 µM [activator, partial curve] |  |
| O=C(CCCNS(=O)(=O)c1ccccc1)NCc1ccco1 | inactive |  |
| CN(c1ccccc1)S(=O)(=O)c1cc(C(=O)Nc2nc3ccccc3[nH]2)ccc1Cl | active: 11.2 µM |  |
| O=C(NC(=S)Nc1nc(-c2ccccc2)cs1)c1cncc(Br)c1 | inconclusive: 35.5 µM [inhibitor, single point] |  |
| C=CCN(c1cccc(C(F)(F)F)c1)S(=O)(=O)c1cccc(C(=O)OCC(=O)NC)c1 | inconclusive: 4.47 µM [inhibitor, single point] |  |
| CC(C)C(=O)NC(c1ccc([N+](=O)[O-])cc1)c1c(O)ccc2ccccc12 (configuration not stated) | inconclusive: 17.8 µM [inhibitor, single point] |  |

Laid out differently: results already given
Compound	Potency	activity change, negative = inhibition
COC(=O)c1[nH]c2ccc(C)cc2c1NS(=O)(=O)c1ccc(F)cc1	inconclusive: 25.1 µM [inhibitor, single point]	
COCCn1c(SCC(=O)OCc2ccccc2)nc2c1c(=O)[nH]c(=O)n2C	inconclusive: 1.26 µM [activator, single point]	

(next part)

| Compound | Potency | activity change, negative = inhibition |
| --- | --- | --- |
| Cc1ccnc2c(N3C(=O)C4C5c6ccccc6C(c6ccccc65)C4C3=O)cccc12 (configuration not stated) | inconclusive: 14.1 µM [inhibitor, single point] |  |
| Cc1ccc(N2CCN(c3ccc(NCc4nc5ccccc5n4C)cc3)CC2)cc1 | inconclusive: 3.16 µM [activator, partial curve, poor fit] |  |
| O=C(CSCc1ccccc1)NNC(=S)Nc1cccc(Cl)c1Cl | inconclusive: 12.6 µM [inhibitor, single point] |  |
| COc1ccc(NC(=O)C(C)N2C(=O)c3ccccc3C2=O)cc1S(=O)(=O)N1CCOCC1 (configuration not stated) | inactive |  |
| COc1cccc(NC(=O)NCCCSC2CCCCC2)c1 | inconclusive: 22.4 µM [inhibitor, single point] |  |
| COCCN1CCN(c2cc(-c3ccccc3)nc3cc(-c4cccc(F)c4)nn23)CC1 | inconclusive: 35.5 µM [inhibitor, single point] |  |
| COc1ccccc1N1CCN(C(=O)CSc2nnc3c4ccccc4n(CC(=O)O)c3n2)CC1 | inactive |  |
| Cc1ccc(OCCCC(=O)NC(C)c2ccccc2)cc1 (configuration not stated) | inactive |  |
| O=C1c2cccc(OCc3ccc(F)cc3)c2CCN1Cc1ccc(F)cc1 | active: 20 µM |  |
| O=C(N/N=C/c1c(O)n(-c2ccccc2Cl)c(=O)c2ccccc12)c1cccnc1 | inconclusive: 31.6 µM [inhibitor, single point] |  |
| Cc1ccc(C)c(OCC(=O)NCCNC(=O)COc2cc(C)ccc2C)c1 | inconclusive: 25.1 µM [inhibitor, partial curve] |  |
| CC1(C)CC2(CCO1)OC(=O)CC2C(=O)Nc1ccccc1Cl (configuration not stated) |  | inactive: 9.78% [at 9.22 µM] |
| O=C(CCl)Nc1cccc(S(=O)(=O)N2CCCCCC2)c1 | active: 10 µM |  |
| Cc1ccccc1Cn1c(CN2CCN(C(=O)c3ccco3)CC2)nc2c1c(=O)n(C)c(=O)n2C | inactive |  |
| COc1cc(N[C@@H](C)CCCN)c2ncccc2c1 | inactive |  |
| CCOC(=O)c1c(C)n(-c2ccc(C)cc2)c2c(C(C(C)=O)C(=O)O)c(Br)c(O)c(O)c12 (configuration not stated) | active: 12.6 µM |  |
| CC1=CC2=NC(=O)/C(=C\c3cccn3CCOc3ccccc3C)C(=N)N2O1 | inconclusive: 35.5 µM [inhibitor, single point] |  |
| Cc1cc(C)n2c(SCc3ccc(Br)cc3)nnc2n1 |  | inactive: -11% [at 9.22 µM] |
| COc1ccc(CCn2cnc(=O)c(C#N)c2C)cc1OC | inactive |  |
| O=C(Nn1c(O)c(C=C2N=c3ccccc3=N2)sc1=S)c1ccc(Cl)cc1 | inconclusive: 22.4 µM [activator, single point] |  |
| c1ccc(OCc2nc3c4c(ncn3n2)-c2ccccc2CC42CCCC2)cc1 | inactive |  |
| CC(C)(C)c1ccc(NS(=O)(=O)c2ccc(N)cc2)cc1 |  | inactive: 3.88% [at 9.22 µM] |
| O=C(NCC1CCCO1)c1ccc(CS(=O)(=O)c2ccc(Cl)cc2)o1 (configuration not stated) | inconclusive: 0.562 µM [activator, partial curve, poor fit] |  |
